Reference: article PMC12447900
Like-named read-outs stand apart in the source and are kept apart here. No constants are given. Whether binding was seen depends on the method and setting. Binding seen in cells or lysates may run through a third protein. These calls come from enrichment with a bait or labelling near it, and not all partners need be listed.

Protein sequences, listed by entry. Tags and fused reporters are not part of them. Residues count along the entry.
UniProt P08670: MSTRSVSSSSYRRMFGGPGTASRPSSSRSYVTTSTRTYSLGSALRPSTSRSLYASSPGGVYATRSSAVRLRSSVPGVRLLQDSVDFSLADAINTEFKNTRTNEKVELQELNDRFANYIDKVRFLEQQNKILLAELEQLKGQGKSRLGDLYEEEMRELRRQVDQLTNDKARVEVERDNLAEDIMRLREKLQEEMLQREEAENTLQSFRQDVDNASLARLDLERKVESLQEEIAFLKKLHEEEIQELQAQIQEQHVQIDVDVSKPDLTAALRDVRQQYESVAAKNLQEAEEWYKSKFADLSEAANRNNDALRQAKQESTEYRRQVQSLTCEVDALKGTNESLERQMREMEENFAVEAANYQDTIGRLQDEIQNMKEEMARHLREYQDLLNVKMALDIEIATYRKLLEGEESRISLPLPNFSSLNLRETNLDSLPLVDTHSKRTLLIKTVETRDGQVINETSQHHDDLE
UniProt P29317, residues 24-976: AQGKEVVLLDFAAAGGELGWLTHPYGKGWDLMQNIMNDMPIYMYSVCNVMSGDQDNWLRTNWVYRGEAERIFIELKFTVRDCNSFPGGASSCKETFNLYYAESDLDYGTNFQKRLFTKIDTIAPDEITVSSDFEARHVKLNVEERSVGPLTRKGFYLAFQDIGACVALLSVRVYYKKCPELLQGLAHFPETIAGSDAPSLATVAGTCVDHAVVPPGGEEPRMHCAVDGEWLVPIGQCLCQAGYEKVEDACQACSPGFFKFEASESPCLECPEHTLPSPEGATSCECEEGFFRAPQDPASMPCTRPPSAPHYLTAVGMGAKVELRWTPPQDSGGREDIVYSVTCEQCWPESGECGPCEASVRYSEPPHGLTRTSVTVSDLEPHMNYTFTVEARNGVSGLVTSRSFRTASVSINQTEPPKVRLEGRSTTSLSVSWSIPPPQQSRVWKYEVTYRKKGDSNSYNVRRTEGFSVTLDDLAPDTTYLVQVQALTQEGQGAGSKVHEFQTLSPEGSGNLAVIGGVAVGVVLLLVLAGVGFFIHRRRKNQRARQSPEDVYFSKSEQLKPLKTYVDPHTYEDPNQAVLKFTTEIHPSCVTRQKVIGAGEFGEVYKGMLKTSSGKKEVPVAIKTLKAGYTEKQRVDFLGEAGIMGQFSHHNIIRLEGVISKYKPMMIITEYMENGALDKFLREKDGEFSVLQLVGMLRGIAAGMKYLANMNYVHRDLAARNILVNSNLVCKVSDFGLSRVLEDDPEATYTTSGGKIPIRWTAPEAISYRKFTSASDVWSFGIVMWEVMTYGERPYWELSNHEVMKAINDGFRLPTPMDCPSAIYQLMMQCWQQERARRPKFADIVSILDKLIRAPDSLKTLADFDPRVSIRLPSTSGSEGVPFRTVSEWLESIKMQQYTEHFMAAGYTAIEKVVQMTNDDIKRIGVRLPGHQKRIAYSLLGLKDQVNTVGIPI
UniProt P29323, residues 19-1055: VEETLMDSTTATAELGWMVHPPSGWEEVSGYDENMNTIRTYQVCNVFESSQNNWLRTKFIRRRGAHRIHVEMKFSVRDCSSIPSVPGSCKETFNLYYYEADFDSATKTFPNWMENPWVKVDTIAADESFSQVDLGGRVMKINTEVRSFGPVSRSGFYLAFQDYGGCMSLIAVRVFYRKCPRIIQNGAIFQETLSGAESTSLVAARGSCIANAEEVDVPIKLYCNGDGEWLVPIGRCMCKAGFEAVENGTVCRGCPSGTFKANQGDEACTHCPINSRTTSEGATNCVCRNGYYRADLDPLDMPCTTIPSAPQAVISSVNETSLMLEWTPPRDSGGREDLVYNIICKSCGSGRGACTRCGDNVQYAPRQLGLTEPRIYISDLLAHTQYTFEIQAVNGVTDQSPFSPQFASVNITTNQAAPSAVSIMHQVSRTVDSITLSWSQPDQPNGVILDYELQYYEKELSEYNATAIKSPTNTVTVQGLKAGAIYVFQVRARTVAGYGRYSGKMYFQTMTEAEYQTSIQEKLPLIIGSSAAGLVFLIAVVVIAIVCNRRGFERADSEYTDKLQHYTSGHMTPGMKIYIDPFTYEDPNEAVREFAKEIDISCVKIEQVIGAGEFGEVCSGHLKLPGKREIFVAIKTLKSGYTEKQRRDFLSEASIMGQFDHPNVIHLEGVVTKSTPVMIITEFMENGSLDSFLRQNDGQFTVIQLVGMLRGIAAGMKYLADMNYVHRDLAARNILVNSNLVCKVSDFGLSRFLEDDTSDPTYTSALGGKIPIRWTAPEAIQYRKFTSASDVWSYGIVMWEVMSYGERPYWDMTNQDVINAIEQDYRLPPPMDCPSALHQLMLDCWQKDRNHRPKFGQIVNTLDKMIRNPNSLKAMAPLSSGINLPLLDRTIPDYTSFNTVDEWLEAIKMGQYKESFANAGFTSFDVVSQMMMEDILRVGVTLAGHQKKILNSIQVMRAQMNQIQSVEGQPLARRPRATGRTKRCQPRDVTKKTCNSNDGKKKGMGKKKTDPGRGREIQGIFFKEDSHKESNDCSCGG
UniProt Q6UVK1, residues 30-2322: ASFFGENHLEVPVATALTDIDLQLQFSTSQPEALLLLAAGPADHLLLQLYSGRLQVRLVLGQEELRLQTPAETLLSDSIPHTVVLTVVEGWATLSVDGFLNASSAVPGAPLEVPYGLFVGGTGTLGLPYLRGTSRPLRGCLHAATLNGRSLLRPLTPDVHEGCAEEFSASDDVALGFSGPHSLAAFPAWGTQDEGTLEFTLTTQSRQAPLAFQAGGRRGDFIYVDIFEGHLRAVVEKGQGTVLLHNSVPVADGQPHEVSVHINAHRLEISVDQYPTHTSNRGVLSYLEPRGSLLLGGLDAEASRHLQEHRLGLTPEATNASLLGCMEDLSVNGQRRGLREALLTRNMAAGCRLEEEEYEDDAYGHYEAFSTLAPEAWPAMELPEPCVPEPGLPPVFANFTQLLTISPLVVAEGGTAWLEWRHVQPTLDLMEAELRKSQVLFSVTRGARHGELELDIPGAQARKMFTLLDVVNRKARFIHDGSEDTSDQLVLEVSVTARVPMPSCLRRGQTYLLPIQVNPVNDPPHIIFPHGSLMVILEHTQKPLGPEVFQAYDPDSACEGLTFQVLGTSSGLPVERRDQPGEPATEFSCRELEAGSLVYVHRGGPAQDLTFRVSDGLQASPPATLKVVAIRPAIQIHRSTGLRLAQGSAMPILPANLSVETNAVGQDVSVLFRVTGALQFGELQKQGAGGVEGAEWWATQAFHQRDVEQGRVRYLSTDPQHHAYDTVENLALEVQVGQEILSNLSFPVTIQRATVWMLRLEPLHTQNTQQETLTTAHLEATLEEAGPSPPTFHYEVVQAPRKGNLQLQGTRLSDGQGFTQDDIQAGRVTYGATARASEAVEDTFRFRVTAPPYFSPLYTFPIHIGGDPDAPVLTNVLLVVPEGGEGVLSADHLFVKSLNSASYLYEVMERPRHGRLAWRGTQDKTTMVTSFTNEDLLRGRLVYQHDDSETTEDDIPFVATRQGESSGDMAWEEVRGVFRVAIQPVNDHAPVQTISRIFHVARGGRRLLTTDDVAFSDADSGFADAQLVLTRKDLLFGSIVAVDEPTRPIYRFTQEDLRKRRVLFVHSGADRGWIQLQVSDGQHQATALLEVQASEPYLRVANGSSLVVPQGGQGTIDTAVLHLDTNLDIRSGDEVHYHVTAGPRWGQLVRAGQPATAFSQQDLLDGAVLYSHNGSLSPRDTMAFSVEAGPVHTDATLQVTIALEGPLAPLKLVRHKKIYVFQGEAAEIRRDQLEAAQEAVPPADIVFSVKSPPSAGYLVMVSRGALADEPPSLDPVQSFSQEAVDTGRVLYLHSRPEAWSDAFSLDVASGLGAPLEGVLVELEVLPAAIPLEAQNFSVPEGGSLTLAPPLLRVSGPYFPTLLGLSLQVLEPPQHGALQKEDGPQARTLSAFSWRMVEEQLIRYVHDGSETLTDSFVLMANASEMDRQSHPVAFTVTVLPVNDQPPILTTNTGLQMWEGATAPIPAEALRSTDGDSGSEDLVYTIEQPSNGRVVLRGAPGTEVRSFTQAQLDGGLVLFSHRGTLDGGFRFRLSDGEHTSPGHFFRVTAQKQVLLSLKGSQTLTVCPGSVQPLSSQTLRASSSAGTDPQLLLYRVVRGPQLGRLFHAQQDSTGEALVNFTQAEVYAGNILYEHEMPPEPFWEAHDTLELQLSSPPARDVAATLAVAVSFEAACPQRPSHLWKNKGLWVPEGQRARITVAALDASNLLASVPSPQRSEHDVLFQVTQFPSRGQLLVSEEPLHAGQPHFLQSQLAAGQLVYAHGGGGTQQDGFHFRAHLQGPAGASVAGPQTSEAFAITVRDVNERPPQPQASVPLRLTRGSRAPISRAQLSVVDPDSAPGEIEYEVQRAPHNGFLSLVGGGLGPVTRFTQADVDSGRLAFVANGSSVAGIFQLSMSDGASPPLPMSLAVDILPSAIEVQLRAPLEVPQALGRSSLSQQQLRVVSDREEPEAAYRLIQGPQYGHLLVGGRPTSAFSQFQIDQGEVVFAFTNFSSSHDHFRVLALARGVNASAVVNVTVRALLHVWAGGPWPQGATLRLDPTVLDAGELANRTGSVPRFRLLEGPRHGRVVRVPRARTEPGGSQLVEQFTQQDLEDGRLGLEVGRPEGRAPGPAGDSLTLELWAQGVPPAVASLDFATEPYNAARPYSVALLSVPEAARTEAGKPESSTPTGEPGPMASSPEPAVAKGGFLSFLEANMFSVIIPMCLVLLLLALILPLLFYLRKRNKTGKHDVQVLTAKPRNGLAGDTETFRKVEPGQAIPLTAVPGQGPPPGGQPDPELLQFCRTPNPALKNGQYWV
UniProt Q8TF66, residues 22-581: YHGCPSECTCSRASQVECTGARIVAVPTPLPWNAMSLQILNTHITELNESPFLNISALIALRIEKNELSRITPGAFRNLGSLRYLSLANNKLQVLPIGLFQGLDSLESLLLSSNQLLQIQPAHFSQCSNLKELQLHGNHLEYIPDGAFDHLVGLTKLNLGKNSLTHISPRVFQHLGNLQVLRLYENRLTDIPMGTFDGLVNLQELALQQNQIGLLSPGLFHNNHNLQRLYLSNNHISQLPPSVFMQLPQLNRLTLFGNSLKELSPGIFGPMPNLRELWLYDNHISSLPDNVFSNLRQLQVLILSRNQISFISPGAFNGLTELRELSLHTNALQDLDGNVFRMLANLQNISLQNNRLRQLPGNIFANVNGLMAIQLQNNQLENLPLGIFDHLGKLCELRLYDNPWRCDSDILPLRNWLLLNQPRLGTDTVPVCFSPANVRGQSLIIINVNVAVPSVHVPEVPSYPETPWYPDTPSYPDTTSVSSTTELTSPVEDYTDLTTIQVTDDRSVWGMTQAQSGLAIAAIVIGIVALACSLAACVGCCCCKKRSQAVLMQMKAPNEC

Assays:
[1] = biological target: cell-surface Vimentin with a genomically inserted C-terminal HA-tag, on HGF and HUVEC cells (human (endogenous in HGF and HUVEC)) (UniProt P08670); test: proximity labelling; Experiment #2: live C-terminally HA-tag edited HGF and HUVEC cells on ice, HA-tag rabbit mAb and HRP-conjugated secondary antibody, biotinyl tyramide and H2O2 for 3 min at RT; streptavidin pull-down and LC-MS/MS; control: wildtype cells
[2] = biological target: cell-surface Vimentin (csVim), wildtype, on HGF cells (human (endogenous in HGF)) (UniProt P08670); test: proximity labelling; Experiment #1: live wildtype HGF cells on ice, Vimentin rabbit pAb and HRP-conjugated secondary antibody, biotinyl tyramide and H2O2 for 3 min at RT; streptavidin pull-down and LC-MS/MS; control: secondary antibody only
[3] = biological target: cell-surface Vimentin with a genomically inserted C-terminal HA-tag, on HGF and HUVEC cells (human (endogenous in HGF and HUVEC)) (UniProt P08670); test: proximity labelling; Experiment #2: live C-terminally HA-tag edited HGF and HUVEC cells on ice, HA-tag rabbit mAb and HRP-conjugated secondary antibody, biotinyl tyramide and H2O2 for 3 min at RT; streptavidin pull-down and LC-MS/MS; control: wildtype cells; remark: listed apart in the source

| binding [1] | binding [2] | binding [3] | Molecule |
| --- | --- | --- | --- |
| binds |  |  | EPHA2, endogenous (from UniProt P29317 24-976) (receptor) |
| binds |  |  | EPHB2, endogenous (from UniProt P29323 19-1055) (receptor) |
|  | binds | binds | DKK1, endogenous (ligand, UniProt O94907 32-266) TLNSVLNSNAIKNLPPPLGGAAGHPGSAVSAAPGILYPGGNKYQTIDNYQPYPCAEDEECGTDEYCASPTRGGDAGVQICLACRKRRKRCMRHAMCCPGNYCKNGICVSSDQNHFRGEIEETITESFGNDHSTLDGYSRRTTLSSKMYHTKGQEGSVCLRSSDCASGLCCARHFWSKICKPVLKEGQVCTKHRRKGSHGLEIFQRCYCGEGLSCRIQKDHHQASNSSRLHTCQRH |

The remaining lines, values behind:

| Molecule | binding [1] | binding [2] | binding [3] |
| --- | --- | --- | --- |
| CSPG4, endogenous (from UniProt Q6UVK1 30-2322) | binds |  |  |
| LRRC15, endogenous (from UniProt Q8TF66 22-581) (receptor) | binds |  |  |
